Drawing on PMC4079325, this text covers binding for two molecules.

Residue numbers refer to the chain shown, from its start. Results are given in words; binding and its absence hold for the method and conditions named. Binding seen in cells or lysates may run through a third protein. Some results given as binding are weak or reduced against the parent protein; the word gives no strength. Where a sequence is shown, tags or fusion partners need not be part of it.

The target in the assay is T1, human wild-type SULT4A1 (human) (UniProt Q9BR01).
T1 sequence: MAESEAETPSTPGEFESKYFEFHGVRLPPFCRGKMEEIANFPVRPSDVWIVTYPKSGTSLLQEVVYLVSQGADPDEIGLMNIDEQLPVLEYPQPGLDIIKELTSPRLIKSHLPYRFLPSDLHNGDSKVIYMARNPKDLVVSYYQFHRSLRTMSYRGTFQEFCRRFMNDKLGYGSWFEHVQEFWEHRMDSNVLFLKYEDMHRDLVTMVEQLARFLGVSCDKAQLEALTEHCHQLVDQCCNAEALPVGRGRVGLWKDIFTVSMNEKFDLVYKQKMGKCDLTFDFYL
The assay can be described thus: co-IP; IMR-32 cells co-transfected with HA-tagged SULT4A1 and a FLAG-tagged SULT4A1 construct for 24 hr; lysis in 1% Triton X-100, 50 mM Tris pH 7.4, 150 mM NaCl, 1 mM EDTA; precipitated with anti-HA antibody and protein A agarose at 4°C; detected with anti-FLAG antibody.

B1: human wild-type SULT4A1 (enzyme, UniProt Q9BR01 1-284)
chain: T1 sequence
On to B1, for which the binding result is “binds”.

B2: FLAG-tagged SULT4A1 TV>AE mutant (enzyme, UniProt Q9BR01 1-284)
chain: T1 sequence with T258A, V259E
As to B2, the binding entry is given as “no binding”.
